Among the data in publication PMC5593965 are binding values, retold here.

One assay addresses plasminogen. Put plainly: affinity purification with mass spectrometry; plasminogen as bait on an avidin agarose column; M. hyopneumoniae protein lysate loaded in PBS (pH 7.8), washed with 4 column volumes of PBS, eluted with 30% acetonitrile, 0.4% trifluoroacetic acid; elutions separated by 1D-SDS-PAGE and analysed by LC-MS/MS; only the target purified.
The next assay has as its target fibronectin. Put plainly: affinity purification with mass spectrometry; fibronectin as bait on an avidin agarose column; M. hyopneumoniae protein lysate loaded in PBS (pH 7.8), washed with 4 column volumes of PBS, eluted with 7 M urea, 2 M thiourea, 40 mM Tris and 1% (w/v) C7BzO; elutions separated by 1D-SDS-PAGE and analysed by LC-MS/MS; only the target purified.

No constants are given. Whether binding was seen depends on the method and setting. Binding seen in cells or lysates may run through a third protein. Here binding means that the protein was enriched with, or labelled near, the bait; the list need not be complete. For part of these data: A no says only that the protein was not detected with the bait.

B1: 50S ribosomal protein L2 (protein, UniProt Q4AAE3 1-282)
chain: MALKYYKPTTNGRRHMSSLDFGANLTTNKPEKSLLTILKKHSGRNSQGKITVRHQGGRHKRKYRLIDFKRNKDDITGIVKTIEYDPNRSANIALISYIDGEKRYILAPKNLKVGQKISSGPKSDILVGNALPLAKIPEGTFVHNIELKPGAGAKLIRSAGTWAQIQGRDENGKYVILKLKSGEYRRILATCRATIGVVGNEENSLVNIGKAGRNRHKGIRPTVRGSVMNPNDHPHGGGEGKQPIGRKSPLTPWGKKALGVKTRNPKKPSTKLIIRSRKETKK
For the molecule B1, the binding entry in the assay with plasminogen was “binds”.

B2: 30S ribosomal protein S8 (protein, UniProt Q4AAF4 1-131)
chain: MAFITDPIADMLTRIRNATIRKHKNVSFQHSKTKVKILEIIQKAGYIKDFQVEGDLKKNITVELKYKGNLSSISGLKRISKPSLRVYTSASKIPFVQSGFGIAILSTSKGLLTDSQARKENVGGEIIAYIW
On to B2, for which, in the assay with plasminogen, the binding entry is reported as “binds”.

B3: 50S ribosomal protein L3 (protein, UniProt Q4AAE0 1-230)
chain: MKGILGKKVGMSQLFTTEGIAIPVSIIEVPENIVTKIITKEKNSYDAIQLAAFDKKQSRFLKPEIGHFAKANTKPKRFIKEFRDFQGYKLGQTVDVSIFSPGEFVDVTGTSKGKGFAGTIKRYNQAIGPRSHGGGGGSKPIRQTGSLGDISGNKVVKGMTMPGRLGHEKVTKQSLEIIKVDKENNLLVLKGSVPGPKKSFLVIKSAIKKPNPKNPVSLFVPNSDKEVKNE
Turning to B3, the binding result with plasminogen is “binds”.

B4: 30S ribosomal protein S2 (protein, UniProt Q4AAW8 1-318)
chain: MEKLVTQQVQNVDPKQSEILNISEIPAENPTETPIISKQKLLEAGVYFGHKASQWHPKMAQFLLKKKRNETHIIDVLKTQKMLEIAYKLVEKFAQKGAKFIFVGTKKQAKKVIEEQAVRTNSIYVSGRWLGGTLTNNRTILSRLKTMENLEKQAAENFQGYTKKEKLAKQKQLAKLQKNLNGIKGLKDVPLFSLIMLVADPLKDAIAVKEARKKGIKIIGITDSNVDPSLVDFGIPANDDSTKSITLIFTVLADAIASAKGGKKLFAYQSDENIILPEDPEKELKQTRYRNNSFEKFARQKNTLKESQVLKPNTEIQA
In the case of B4, the binding entry with fibronectin and in the assay with plasminogen was “binds” throughout.

B5: 50S ribosomal protein L21 (protein, UniProt Q4AAK2 1-99)
chain: MFAIIKTGGRQLKVEKDQTIFVEKIDKNEGETITFTDILFINGKIGTPYVENASVTGIIEKQGKAKKIVVYRHNPKSTHKRKLGHRQLFTKVKITELKG
For the molecule B5, in the assay with plasminogen, the binding entry is reported as “binds”.

B6: DNA-directed RNA polymerase subunit beta (MHJ_0617) (protein, UniProt Q4A970 1-1412)
chain: MNTKVSRQYAKISENSIQKISLALATPEDVLEWSRGEVHRPETINYKTFKPERGGLFDELIFGPLVDYKCSVCGRKYRKSNENQLCIATKECKIRGSRILSKMARRYSMGHIALNAPILHFWFFKIDHSIIAKLLGLKVFEGNSKVPTTITKAAIENLIYYKSHIVLETGGLKSLEQNKIIDISEAGLIYKNALIEIIEFYPPGSEEHNALAESISELADVTSSKIGREYGVDYYELNEIIEEFSSARIATGALAIEYLLDKIDLRAEKAAVEAELAGVQKQIYKNKKIILKNQKRDKLYKRLQVINAFINSGQDPKMMIIRNLPVIPADLRPLVQLDGSRHSTSDCNELYRRIIIRNNRLKRWKAAHAPVIIIQNEMRMLQEAVDALIDNQKKSTNQVTTKEGRPLKSISDALTGKKGRFRQNLLGKRVDYSGRSVIVVGPKLKMHQAGLPRKMAAVLFEPWIIRNLIQEKKVGSIKMARKMIEEENPIIWPHVAKVIQNKPIILNRAPTLHRLSIQAFEPVLVRAKAIQLHPLVTAGFNADFDGDQMAVHIPISPEAIRETQELMFADKNILGPKDGEPIVNPSQDMVLGLYYLSQEKAGAKGEGSFFSTYEAMLKAYEFRSVELHARVVLPFEQVKPFIAKTMRGHLISTVGKFILNNIFPANFPFIFDDNVDELELNYPSQIKKYVLPYGTNFREYIQNLKVNEPLNKKAIAKIVRQIFDTYDGLLAKEDIATVIDQLDFGNYQNCVLRYEKLRDYKKQKLPVPHLSKLSEFTIFEYSQLYKQLQQNGPVESYRVLEDHEKAELLEKIWFKYNNMVCSILDKIKDLGFHYSTLSGTSIAISDIKMAPKKHEFIKEGENYINKLNTFYAKGLITDDERYVLAIAKWTQIKNDIQEDLNQSIKDDNQNSLVMMMKSGARGNISNFVQLAGMRGLMANNVKALKVDAENERVVRSIVEVPVKSSFLEGLTSFEFYSSTHGARKGLTDTALNTAKSGYLTRRLVDVAQNIVVVAEDCFSDFGFVVKDIIDTKTNTIIVPLLERIEGRFLNKDVYDSRGIKLASAGTMVDLQTAKKIVAAGIKKVEIRSILSCHIKNSVCKKCYGKDLATNRLVSIGEAVGIIAAQSIGEPGTQLTMRTFHTGGVANVEDITGGFTRLIELIDSHEHPWGKPAKISPYYGIITKISDLAEKNAANKGFLITIEYKTSKNEKAEHIIRIEQSQKLRVKVGDKVIPGQKLVEGPIILKELLAVSDARTLQNYLLKEIQRIYRMQGISISDKYIEIIIRQMLSKVQIIENGDSNFFIGSIVDISDYQEVNGQLISQNKNPAFGNVIVKGAKQIPLLSNSFLAAASYQETSKILVHSVISSQIDKLEGLKENIIVGHKIPAGTNSNYEPKSKFDIRNPLSFFMKNNR
Take B6: the binding entry in the assay with fibronectin was “no binding”.

B7: Enolase (protein, UniProt Q4AA88 1-451)
chain: MSKITKVFAREILDSRGNPTIQVDVYTLAGGFGSAIVPSGASTGSREALELRDTNTKYADNWYGQKGVMTAVDNVNNIIAPEIIGLCCKNQRLIDQKMIELDGTPNKEKLGANAILGVSLAVAKAAANELRMPLFRYLGGTNPTLMPVPMLNVINGGEHASNTLDFQEFMIMPLGFRTFKEALQAANKVFHNLAKLLKKSGFETQVGDEGGFAPNFNSHEQALDFLVDAIKESGFNPGFKGENAVAIAIDAAASEFYNGQKYVFKKLKSASLNKNQADLDEKFEFNSEELLNYYGQLLAKYPIISIEDGFAESDWQGFIAFNQKYGNNHQIVGDDLTVTNVEILKKAINLKAINSILIKLNQIGTLSETLDAIHLAQKSGMTAVISHRSGESEDTTIADLAVAVSSGQIKTGSLSRTDRIAKYNRLLVIEEYLNSYAKADYIGREVFYNLK
For the molecule B7, the binding result with fibronectin and in the assay with plasminogen was “binds” each time.

B8: Trigger factor (protein, UniProt Q4AAI5 1-465)
chain: MIKREFLPESAELKIKLTADSKKWAEFYQKAEQKQAAKVSLRGFRKGKVPLEKARAYLNPQAVFELALRMFLPELEKQAATNIIDSDNVIESPIFNIVNMDKNNLEIEFLYPVYPEIKLPDYKNLKTKFAIKKITKEDIELQKQKLLEAKGRFIEVNRPVKIGDVINFNFKGFIDDEPFDGGEGENFDLRIGSNSFIAGFEEQLVGLEIKKEADIYVTFPENYQVHTYANKKARFRVRINKIKENQPAKLTNEFVASLKIQNVETISQLEVYLENLTERENIERAKIDFQRNALTEIGEQVEVPLAKKLINLEIERLNEVFHSTLKQQEIPLKEYLKITKFTEKDIYDQFEVEAKKLLKNSFIFAEIAKLEGLVPTQQEYESHVEKLAKFTGKSVQEISETVSYNEIQINITNQKVIDKLIEFNHEAKDEEIVNKNQNDNEIEQDKEQKDNNEEKIKQENNLENK
Take B8: in the assay with plasminogen, the binding result is “binds”.

B9: ATP-dependent 6-phosphofructokinase (protein, UniProt Q4AAM2 1-322)
chain: MSKKIGILTSGGDAPGMNSAISFLAKSALSLGFEPYLIFDGYSGIIARKILPAKNFPYNGISSFGGTAIGSSRFPEFKKEEVQNKAVEILSEIGISSLVVVGGDGTYNGGYKLHLKGIKVIALPGTIDNDIQFTDYTIGFDTALNTIVETIDKLRDTANSHRRCFVVEVMGRHCQDLALYSAMATGSEILITNTNILTPEEVSQKVLEQFAKGKPSVIVTITENILPNLKEFAAKIEELTKISTRSLEVGHTQRGGRPSAFDRILAAKMAMKAMELINQDKSGLAISYLDGKIQTFDIAKVVSKPVRKTNDLVLEINKINQN
Turning to B9, in the assay with plasminogen, the binding result is reported as “binds”.

B10: 50S ribosomal protein L24 (protein, UniProt Q4AAF1 1-107)
chain: MGKIRKNDTVVVLSGDDKGKQGAVLELIPAKKAAIVKGVNIKTKHRKPSNKNTSGEIITFEAPILLSKLALVAKKATKDKPAIPTRVGFKIENKKKIRIAKKTGKAI
Regarding B10, in the assay with plasminogen, the binding entry was “binds”.
